Laboratory results published in patent US20040014174.

How the values were obtained:
[1] = tested on: chloroplast 30S ribosomal subunit (Chlamydomonas reinhardtii); test: footprint; conditions: toeprint with E. coli tRNAfMet, 37 C; pauses 12 nt 3' of SD and of AUG; purified native protein; protein details: high-salt washed, sucrose gradient
[2] = tested on: psbA 5'UTR-specific nuclear-encoded protein complex (heparin-agarose purified) (Chlamydomonas reinhardtii); test: competition with a labelled probe; conditions: purified native protein, protein details: heparin-agarose purified fraction, variant of psbA 5'UTR wild type
[3] = tested on: psbA 5'UTR-specific nuclear-encoded protein complex (heparin-agarose purified) (Chlamydomonas reinhardtii); test: EMSA; conditions: 4 mM MgCl2, 100 mM KOAc, pH 7.5, room temperature, wheat germ tRNA competitor; 250-fold unlabeled RNA competes; purified native protein; protein details: heparin-agarose purified fraction; label: 32P
[4] = unlabeled mutant RNA competes wild type

UUACGGAGAAAUUAAAACUUUAAAAAAAUUAACAUAUG [psbA D1-HA transcript (5' end of psbA mRNA)]
binding result [1]: binds

UUACCCAGAAAUUAAAACUUUAAAAAAAUUAACAUAUG [psbA 5'UTR RBS-Alt]
binding result [2, 4]: binds

UUACGGAGAAAUUAAAACUUUAGGAGGAUUAACAUAUG [psbA 5'UTR SD-Add (RBS-Add)]
binding result [2, 4]: binds

UUACGGAGAAAAAAAAUUAACAUAUG [psbA 5'UTR RBS-15]
binding result [2, 4]: binds

UUACAAAUUAAAACUUUAAAAAAAUUAACAUAUG [psbA 5'UTR RBS-del]
binding result ([2]; unlabeled mutant RNA competes wild type, each mutant stated as recognized): binds

UUACGGAGACUUUAAAAAAAUUAACAUAUG [psbA 5'UTR RBS-19]
binding result [2, 4]: binds

UUACGGAGAAAUUAAAACUUUAAAAAAAUUAACAUAUG [psbA 5'UTR wild type]
binding result [3]: binds

UUACGGAGAAAUUAAACAUAUG [psbA 5'UTR RBS-11]
binding result ([2]; recognized but failed to fully compete wild type RNA): binds more weakly

UUACGGAGAAAAACUUUAAAAAAAUUAACAUAUG [psbA 5'UTR RBS-23]
binding result [2, 4]: binds

The exact form of at least one protein or probe is not confirmed. For part of these data: Weaker means in comparison with the reference protein, sequence or condition of that experiment.
